The text below walks through data of publication PMC7819943, “Rice protein-binding microarrays: a tool to detect cis-acting elements near promoter regions in rice”.

The other results are listed elsewhere or left out.

The target of the assay is T1, OsSMF1 (Oryza sativa, UniProt Q6ZLB0 1-436).
T1 sequence: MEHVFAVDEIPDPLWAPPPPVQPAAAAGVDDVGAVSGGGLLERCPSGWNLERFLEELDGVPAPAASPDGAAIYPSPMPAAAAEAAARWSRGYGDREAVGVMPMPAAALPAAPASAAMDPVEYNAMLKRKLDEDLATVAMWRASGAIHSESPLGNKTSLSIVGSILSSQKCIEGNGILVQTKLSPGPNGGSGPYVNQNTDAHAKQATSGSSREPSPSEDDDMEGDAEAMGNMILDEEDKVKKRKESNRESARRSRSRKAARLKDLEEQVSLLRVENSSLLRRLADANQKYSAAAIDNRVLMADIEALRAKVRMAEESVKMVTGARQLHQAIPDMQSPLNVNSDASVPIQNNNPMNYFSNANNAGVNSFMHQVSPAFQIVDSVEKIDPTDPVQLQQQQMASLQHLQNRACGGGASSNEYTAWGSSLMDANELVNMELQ
In words: protein-binding microarray (RPBM); PBS, 2% BSA, 51.3 ng/ul salmon testes DNA, 50 uM zinc acetate, 200 nM TF, 25 C, 1 h; high values mean tight binding. The following applies: protein: recombinant; tags: N-terminal polyhistidine and DsRed monomer fusion (pET32a); chain copies: 2; label: CyDye5-dUTP incorporated in the synthesized complementary strand; 3' TTTTT single-stranded linker to array surface; dsDNA, one strand shown. Put shortly: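 Transcription factors were each fused at the N-terminus to a polyhistidine tag plus DsRed and expressed in E. coli BL21-CodonPlus before Ni–NTA purification. Binding to a double-stranded custom Agilent array was carried out with 200 nM protein at 25 °C for 1 h in PBS, 2% BSA, salmon testes DNA and 50 µM zinc acetate. The binding signal is per-feature fluorescence intensity, in arbitrary units, on an Axon 4000B scanner.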
Regarding “CGTGGTGGTGGTAGGGGAGGGGATGGATGATATGGCGTGACGGAGTCACCTAGTGCAG”, the binding signal is 6780 fluorescence intensity (a.u.). For “AAGCTAATCGCCTTGTCAGACACCCGCATCCCCACCATCCCGGAGTCACCTAGTGCAG”, the binding signal was 3840 fluorescence intensity (a.u.). For “CGCTGTTTGGCCGCGGCGCCAGCGCCGTCATCGTGGGCACCGGAGTCACCTAGTGCAG”, the binding signal was 3140 fluorescence intensity (a.u.). Take “AAGAGAACACAACCTAATGACGCGGTACACGGGACACCCACGGAGTCACCTAGTGCAG”: the binding signal is 4630 fluorescence intensity (a.u.).

For the sequence “TTAGTGTCTGCATTGGATATGAGTCACGGGTTCTTGGTTACGGAGTCACCTAGTGCAG”, the binding signal is 12600 fluorescence intensity (a.u.). On to “TTTTATAAGTAGTAAATATGACGTCGATTCCTGACTAAAACGGAGTCACCTAGTGCAG”, for which the binding signal was 5550 fluorescence intensity (a.u.).

Consider “AGATTATTAATCATGGCGACACGAATGGAAATGGTTAATACGGAGTCACCTAGTGCAG”, for which the binding signal is 3240 fluorescence intensity (a.u.). For the sequence “ACCACTCACATGTACTGTCAGCATATCCTACGTTCTCTCCCGGAGTCACCTAGTGCAG”, the binding signal was 6070 fluorescence intensity (a.u.). To “TGCTTAGCCGTGCGGCCCGTGCGGCGTCAATGGCGTGGCGCGGAGTCACCTAGTGCAG” belongs 4440 fluorescence intensity (a.u.). For “TACTTCTTCTAAATGCTATAGCCAGGGAATGCAAACGAGACGGAGTCACCTAGTGCAG”, the binding signal is 42000 fluorescence intensity (a.u.). For “CGTCGGAGCTAGCAGCAGCGCCGCCGCCCGTGAGCCCTCCCGGAGTCACCTAGTGCAG” the value was 6260 fluorescence intensity (a.u.). “CTAATAGAATGACGTGTAATTCCTTGTCACATTCATAAAACGGAGTCACCTAGTGCAG”: the binding signal was 11300 fluorescence intensity (a.u.). Regarding “ACATGCAAAGAGAAGACATCCCCTCGAGAGATGAAAATCCCGGAGTCACCTAGTGCAG”, the binding signal was 4000 fluorescence intensity (a.u.). Consider “ACTTATCCCATGCAGAAACTTTATGACGCAGGCACAAATACGGAGTCACCTAGTGCAG”, for which the binding signal is 3250 fluorescence intensity (a.u.). Take “CGACCCTATCCGTACTGCACTTCCGGCCAACCCCACGTCGCGGAGTCACCTAGTGCAG”: the binding signal was 3790 fluorescence intensity (a.u.).

For “CCCATGATCCAGCCAGTCCAGTGGCGCGTCACCGCCTCACCGGAGTCACCTAGTGCAG”, the binding signal was 5210 fluorescence intensity (a.u.). Turning to “AAAGCTAATCCGGTGAAAGGCCCAAATACTTACGTGGGCCCGGAGTCACCTAGTGCAG”, the binding signal was 4800 fluorescence intensity (a.u.).

Turning to “CATCACTGCAAACGAATTTCTGATGAATTTCCACGTTGAACGGAGTCACCTAGTGCAG”, the binding signal was 3320 fluorescence intensity (a.u.). For the sequence “CTGGTATTAGCTGAAGTCAGCCTGCTTTTGGTCATTGGCACGGAGTCACCTAGTGCAG”, the binding signal is 3320 fluorescence intensity (a.u.). For “CCGCCCTGACGTACGTAGCACAATCCTATCTCTGTTCTGTCGGAGTCACCTAGTGCAG” the value was 3590 fluorescence intensity (a.u.).

On to “GGTGGTAGGTGCTTTGACCTCGCCTCCCCGAAGGAGGTTGCGGAGTCACCTAGTGCAG”, for which the binding signal is 3930 fluorescence intensity (a.u.).

With “TCGAGAAGTAGCCCGGGATGGTCGTGCCCGGCGGTGGCGGCGGAGTCACCTAGTGCAG”, the binding signal was 6740 fluorescence intensity (a.u.). For “TATACCTGATTCACCTCACTGTCATAAAACTTGTTGCAAACGGAGTCACCTAGTGCAG” the value was 3760 fluorescence intensity (a.u.); for “ACCGCCGCCTGTTCTTCCCGCGACTCCCCACCCCAACCCCCGGAGTCACCTAGTGCAG”, 16800 fluorescence intensity (a.u.); for “GTGCGCGCTGCTGCCCGGGCCGCACCGTGTGATACGTACACGGAGTCACCTAGTGCAG”, 3450 fluorescence intensity (a.u.). For “CGGTGGTTTTGGCTGACGTGGCACCTATGTGGCAAATTTGCGGAGTCACCTAGTGCAG”, the binding signal is 7870 fluorescence intensity (a.u.). To “GTGCATGTCATGTAATACAATAAAATTCCAATTGACAAGTCGGAGTCACCTAGTGCAG” belongs 3390 fluorescence intensity (a.u.); to “CCTGCCGCCACGTCTGGAGGTCATGTTCCCCACTTCGGTGCGGAGTCACCTAGTGCAG”, 5160 fluorescence intensity (a.u.); to “CTAATGTGCAGCTCCCATGGATGACTCAGCAGACAGCAGGCGGAGTCACCTAGTGCAG”, 14800 fluorescence intensity (a.u.). For “CCCGTTTCCATCGTTAGTGCTGGGCCGAAAGTTCTAGGCCCGGAGTCACCTAGTGCAG” the value was 29200 fluorescence intensity (a.u.). “AGTGAGATCCACGGGACGGAAGTGCACATGCCAACGCATGCGGAGTCACCTAGTGCAG”: the binding signal is 4320 fluorescence intensity (a.u.).

“CAAAGCACTCGTTGTCACCCACTTGGCCGACGTCATCGCGCGGAGTCACCTAGTGCAG”: the binding signal was 11200 fluorescence intensity (a.u.). For “GCGAGTTTGCGCAGCCTGCCTCGTACGTAGGCCTGGCCCACGGAGTCACCTAGTGCAG” the value was 4250 fluorescence intensity (a.u.); for “GCACCGTTCCACCCTCGTGTCCGTCTCGCATTGCACCAAACGGAGTCACCTAGTGCAG”, 3550 fluorescence intensity (a.u.). Regarding “GACCTAGAAAATCACATGACATAGCCCCTAGCATTGTAGCCGGAGTCACCTAGTGCAG”, the binding signal is 4030 fluorescence intensity (a.u.). For “GTATACCGAACCCGTCGTCGTCGACGCCACGCTCGCATTGCGGAGTCACCTAGTGCAG”, the binding signal was 5480 fluorescence intensity (a.u.). Consider “ATGAACTCATGCAACATTACTGGCTGATGCATCAACTTTACGGAGTCACCTAGTGCAG”, for which the binding signal was 3270 fluorescence intensity (a.u.). On to “CCGGCCACCGCCCTCCCGCCGCACGGGCCACCGGCCACCGCGGAGTCACCTAGTGCAG”, for which the binding signal is 3460 fluorescence intensity (a.u.). For “AAATCCTCTCGTTTCTCCGCTCGCTGATTCATTCTCAACGCGGAGTCACCTAGTGCAG”, the binding signal was 3180 fluorescence intensity (a.u.). As for “CTTTTGAGTGATCAAAAGGACACTTGGTGGCTACATGTAACGGAGTCACCTAGTGCAG”, the binding signal was 3160 fluorescence intensity (a.u.). As for “CCCAGATCCAGCCCACGGCCCACGTGTCAACGCTCGTGCACGGAGTCACCTAGTGCAG”, the binding signal was 12900 fluorescence intensity (a.u.). To “GGTGGGACGTGGTGGGCGTCAAGGCGGCGGTGGGAGGGGACGGAGTCACCTAGTGCAG” belongs 5220 fluorescence intensity (a.u.).
